Results on 2 molecules are retold here after EP4582451A1.

The chains behind the UniProt entries cited, without tags or fusion partners. Where a name states a change or a piece, a line headed by the entry shows the natural chain unless it says otherwise.
UniProt P55899: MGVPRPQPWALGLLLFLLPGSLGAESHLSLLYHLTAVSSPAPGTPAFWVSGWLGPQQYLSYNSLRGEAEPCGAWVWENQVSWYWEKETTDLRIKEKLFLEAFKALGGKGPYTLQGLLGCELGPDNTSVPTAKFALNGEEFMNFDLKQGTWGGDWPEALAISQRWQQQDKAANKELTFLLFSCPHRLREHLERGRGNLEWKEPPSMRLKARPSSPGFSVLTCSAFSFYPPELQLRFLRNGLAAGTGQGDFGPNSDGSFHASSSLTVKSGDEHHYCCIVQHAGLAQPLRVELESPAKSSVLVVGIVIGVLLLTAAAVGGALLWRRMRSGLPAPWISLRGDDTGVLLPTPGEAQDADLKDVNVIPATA
UniProt P61769: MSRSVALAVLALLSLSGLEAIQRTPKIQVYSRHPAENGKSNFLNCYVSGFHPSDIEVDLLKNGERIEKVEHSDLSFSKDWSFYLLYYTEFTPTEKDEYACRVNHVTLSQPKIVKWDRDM

Numbering of substitutions follows the chain as printed. No constants are given. Whether binding was seen depends on the method and setting. Some binding calls cover weakened binding; strength is not graded here.

The assay concerns the target hFcRn-Avi (Biosystems, FCM-H82W7) (human (printed as hFcRn)) (UniProt P55899+P61769). Nature of the assay: SPR (Biacore 8K+), hFcRn-Avi captured on SA chip, pH 6.0. (In general: Surface plasmon resonance follows binding to a sensor surface in real time, without labels.)

B1: hAb01_G4P_V1 (antibody, human IgG4 S228P, kappa)
heavy: EVQLVESGGGLVKPGGSLRLSCAASGFTLSDYYIYWVRQAPGKGLEWVATISDAVIYTYYADSVKGRFTISRDNAKNSLYLQMNSLRAEDTAVYFCARAYGSSEVMDYWGQGTLVTVSSASTKGPSVFPLAPCSRSTSESTAALGCLVKDYFPEPVTVSWNSGALTSGVHTFPAVLQSSGLYSLSSVVTVPSSSLGTKTYTCNVDHKPSNTKVDKRVESKYGPPCPPCPAPEFLGGPSVFLFPPKPKDTLYITREPEVTCVVVDVSQEDPEVQFNWYVDGVEVHNAKTKPREEQFNSTYRVVSVLTVLHQDWLNGKEYKCKVSNKGLPSSIEKTISKAKGQPREPQVYTLPPSQEEMTKNQVSLTCLVKGFYPSDIAVEWESNGQPENNYKTTPPVLDSDGSFFLYSRLTVDKSRWQEGNVFSCSVMHEALHNHYTQKSLSLSLGK
light: EIVLTQSPATLSLSPGERATLSCSASSSVSYMHWYQQKPGQAPKRWIYDTSKLASGVPARFSGSGSGTDYTLTISSLEPEDFAVYYCQQWSSNPWTFGGGTKLEIKRTVAAPSVFIFPPSDEQLKSGTASVVCLLNNFYPREAKVQWKVDNALQSGNSQESVTEQDSKDSTYSLSSTLTLSKADYEKHKVYACEVTHQGLSSPVTKSFNRGEC
With B1, the binding result was “binds”.

B2: hAb01_G4P_V2 (antibody, human IgG4 S228P, kappa)
heavy: B1 heavy with L234E
light: B1 light
With B2, the binding result is on record as “binds”.
